The text below walks through data of article PMC5956559.

Protein sequences, listed by entry. Tags and fused reporters are not part of them.
UniProt P03077: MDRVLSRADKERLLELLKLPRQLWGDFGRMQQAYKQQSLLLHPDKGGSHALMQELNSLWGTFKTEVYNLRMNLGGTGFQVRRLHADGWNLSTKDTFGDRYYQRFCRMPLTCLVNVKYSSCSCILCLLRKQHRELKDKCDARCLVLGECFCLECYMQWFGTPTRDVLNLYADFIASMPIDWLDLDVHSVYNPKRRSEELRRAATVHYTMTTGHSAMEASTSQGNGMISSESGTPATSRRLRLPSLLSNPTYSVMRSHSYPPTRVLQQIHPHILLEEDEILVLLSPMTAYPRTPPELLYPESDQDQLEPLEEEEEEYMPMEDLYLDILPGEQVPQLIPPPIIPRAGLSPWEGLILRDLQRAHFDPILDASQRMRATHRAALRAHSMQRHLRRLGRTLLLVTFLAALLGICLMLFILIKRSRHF
UniProt P26450: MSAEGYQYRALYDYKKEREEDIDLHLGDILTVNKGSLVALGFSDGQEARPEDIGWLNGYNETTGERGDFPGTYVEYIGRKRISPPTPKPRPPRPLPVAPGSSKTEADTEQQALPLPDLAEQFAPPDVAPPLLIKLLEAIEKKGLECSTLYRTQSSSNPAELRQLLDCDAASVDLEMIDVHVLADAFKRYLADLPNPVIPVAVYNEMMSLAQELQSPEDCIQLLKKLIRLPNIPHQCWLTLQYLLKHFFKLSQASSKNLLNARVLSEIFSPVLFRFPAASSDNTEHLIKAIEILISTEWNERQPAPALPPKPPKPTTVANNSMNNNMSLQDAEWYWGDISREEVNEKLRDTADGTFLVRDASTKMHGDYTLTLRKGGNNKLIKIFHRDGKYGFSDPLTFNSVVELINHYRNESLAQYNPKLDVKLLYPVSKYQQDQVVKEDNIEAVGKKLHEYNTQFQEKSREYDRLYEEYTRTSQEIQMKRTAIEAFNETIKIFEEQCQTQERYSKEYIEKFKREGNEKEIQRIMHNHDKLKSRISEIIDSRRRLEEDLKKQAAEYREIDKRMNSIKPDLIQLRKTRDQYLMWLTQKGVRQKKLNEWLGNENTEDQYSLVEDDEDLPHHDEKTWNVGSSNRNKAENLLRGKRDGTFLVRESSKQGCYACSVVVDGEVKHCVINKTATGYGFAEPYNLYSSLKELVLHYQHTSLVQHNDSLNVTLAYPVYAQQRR

The target in the assay is polyoma middle T antigen (polyoma virus) (UniProt P03077). The experiment in a line: co-IP; PyMT immunoprecipitated with rat anti-PyMT plus Protein G-Sepharose (2 h, 4 °C) from RIPA buffer (0.1% SDS) lysates of tumors of wild-type and Net1 knockout MMTV-PyMT mice; normal rat IgG as control; western blot. (A western blot detects proteins with antibodies after separation by electrophoresis.)

No constants are given. Whether binding was seen depends on the method and setting. In cells and extracts the contact can be indirect. Some binding calls cover weakened binding; strength is not graded here.

With “phosphatidylinositol 3-kinase regulatory subunit p85α (from UniProt P26450 1-724)”, the binding entry is given as “binds”.
